No constants are given. Whether binding was seen depends on the method and setting. Binding seen in cells or lysates may run through a third protein. Here binding means that the protein was enriched with, or labelled near, the bait; the list need not be complete.
B1: RNA-binding protein 34 (protein, UniProt P42696 1-430)
chain: MALEGMSKRKRKRSVQEGENPDDGVRGSPPEDYRLGQVASSLFRGEHHSRGGTGRLASLFSSLEPQIQPVYVPVPKQTIKKTKRNEEEESTSQIERPLSQEPAKKVKAKKKHTNAEKKLADRESALASADLEEEIHQKQGQKRKNSQPGVKVADRKILDDTEDTVVSQRKKIQINQEEERLKNERTVFVGNLPVTCNKKKLKSFFKEYGQIESVRFRSLIPAEGTLSKKLAAIKRKIHPDQKNINAYVVFKEESAATQALKRNGAQIADGFRIRVDLASETSSRDKRSVFVGNLPYKVEESAIEKHFLDCGSIMAVRIVRDKMTGIGKGFGYVLFENTDSVHLALKLNNSELMGRKLRVMRSVNKEKFKQQNSNPRLKNVSKPKQGLNFTSKTAEGHPKSLFIGEKAVLLKTKKKGQKKSGRPKKQRKQK
B2: Transmembrane protein 237 (protein, UniProt Q96Q45 1-408)
chain: MRTDSGARLEEGHLRPPRALPPVPSQDDIPLSRPKKKKPRTKNTPASASLEGLAQTAGRRPSEGNEPSTKELKEHPEAPVQRRQKKTRLPLELETSSTQKKSSSSSLLRNENGIDAEPAEEAVIQKPRRKTKKTQPAELQYANELGVEDEDIITDEQTTVEQQSVFTAPTGISQPVGKVFVEKSRRFQAADRSELIKTTENIDVSMDVKPSWTTRDVALTVHRAFRMIGLFSHGFLAGCAVWNIVVIYVLAGDQLSNLSNLLQQYKTLAYPFQSLLYLLLALSTISAFDRIDFAKISVAIRNFLALDPTALASFLYFTALILSLSQQMTSDRIHLYTPSSVNGSLWEAGIEEQILQPWIVVNLVVALLVGLSWLFLSYRPGMDLSEELMFSSEVEEYPDKEKEIKASS
B3: Leucine-rich repeat flightless-interacting protein 2 (protein, UniProt Q9Y608 1-721)
chain: MGTPASGRKRTPVKDRFSAEDEALSNIAREAEARLAAKRAARAEARDIRMRELERQQKEYSLHSFDRKWGQIQKWLEDSERARYSHRSSHHRPYLGVEDALSIRSVGSHRYDMFKDRSSRLSSLNHSYSHSHGMKKRSSDSHKDLLSGLYFDQRNYSSLRHSKPTSAYYTRQSSSLYSDPLATYKSDRASPTANSGLLRSASLASLYNGGLYNPYGPRTPSECSYYSSRISSARSSPGFTNDDTASIVSSDRASRGRRESVVSAADYFSRSNRRGSVVSEVDDISIPDLSSLDEKSDKQYAENYTRPSSRNSASATTPLSGNSSRRGSGDTSSLIDPDTSLSELRDIYDLKDQIQDVEGRYMQGLKELKESLSEVEEKYKKAMVSNAQLDNEKNNLIYQVDTLKDVIEEQEEQMAEFYRENEEKSKELERQKHMCSVLQHKMEELKEGLRQRDELIEEKQRMQQKIDTMTKEVFDLQETLLWKDKKIGALEKQKEYIACLRNERDMLREELADLQETVKTGEKHGLVIIPDGTPNGDVSHEPVAGAITVVSQEAAQVLESAGEGPLDVRLRKLAGEKEELLSQIRKLKLQLEEERQKCSRNDGTVGDLAGLQNGSDLQFIEMQRDANRQISEYKFKLSKAEQDITTLEQSISRLEGQVLRYKTAAENAEKVEDELKAEKRKLQRELRTALDKIEEMEMTNSHLAKRLEKMKANRTALLAQQ
B4: Leucine-rich repeat flightless-interacting protein 1 (protein, UniProt Q32MZ4 1-808)
chain: MTSPAAAQSREIDCLSPEAQKLAEARLAAKRAARAEAREIRMKELERQQKEEDSERYSRRSRRNTSASDEDERMSVGSRGSLRVEERPEKDFTEKGSRNMPGLSAATLASLGGTSSRRGSGDTSISIDTEASIREIKELNELKDQIQDVEGKYMQGLKEMKDSLAEVEEKYKKAMVSNAQLDNEKTNFMYQVDTLKDMLLELEEQLAESRRQYEEKNKEFEREKHAHSILQFQFAEVKEALKQREEMLEKHGIILNSEIATNGETSDTLNNVGYQGPTKMTKEELNALKSTGDGTLGRASEVEVKNEIVANVGKREILHNTEKEQHTEDTVKDCVDIEVFPAGENTEDQKSSEDTAPFLGTLAGATYEEQVQSQILESSSLPENTVQVESNEVMGAPDDRTRTPLEPSNCWSDLDGGNHTENVGEAAVTQVEEQAGTVASCPLGHSDDTVYHDDKCMVEVPQELETSTGHSLEKEFTNQEAAEPKEVPAHSTEVGRDHNEEEGEETGLRDEKPIKTEVPGSPAGTEGNCQEATGPSTVDTQNEPLDMKEPDEEKSDQQGEALDSSQKKTKNKKKKNKKKKSPVPVETLKDVKKELTYQNTDLSEIKEEEQVKSTDRKSAVEAQNEVTENPKQKIAAESSENVDCPENPKIKLDGKLDQEGDDVQTAAEEVLADGDTLDFEDDTVQSSGPRAGGEELDEGVAKDNAKIDGATQSSPAEPKSEDADRCTLPEHESPSQDISDACEAESTERCEMSEHPSQTVRKALDSNSLENDDLSAPGREPGHFNPESREDTRGGNEKGKSKEDCTMS

Protein sequences, listed by entry. Tags and fused reporters are not part of them.
UniProt O95817: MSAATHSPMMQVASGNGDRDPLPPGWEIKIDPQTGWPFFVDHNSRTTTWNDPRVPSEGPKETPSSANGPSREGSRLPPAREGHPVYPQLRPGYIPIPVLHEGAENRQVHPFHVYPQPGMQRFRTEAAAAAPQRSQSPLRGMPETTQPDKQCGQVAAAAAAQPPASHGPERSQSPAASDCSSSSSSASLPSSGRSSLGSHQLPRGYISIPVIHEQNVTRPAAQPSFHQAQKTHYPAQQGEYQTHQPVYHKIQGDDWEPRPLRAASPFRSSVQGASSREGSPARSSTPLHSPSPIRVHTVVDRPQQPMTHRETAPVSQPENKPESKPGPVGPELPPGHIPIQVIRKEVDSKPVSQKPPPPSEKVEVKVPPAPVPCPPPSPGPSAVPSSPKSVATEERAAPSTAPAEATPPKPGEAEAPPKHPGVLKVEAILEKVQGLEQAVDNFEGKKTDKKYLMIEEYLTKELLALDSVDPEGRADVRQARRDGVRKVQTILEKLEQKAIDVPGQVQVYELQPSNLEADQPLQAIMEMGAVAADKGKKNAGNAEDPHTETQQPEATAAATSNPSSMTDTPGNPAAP

What follows are binders tested against BAG3 (BCL-2-associated athanogene 3) (human (endogenous in HEK293T)) (UniProt O95817) (assay: affinity purification with mass spectrometry; endogenous BAG3 immunoprecipitated with anti-BAG3 antibody and Protein A/G magnetic beads from HEK293T lysate; cells treated with DMSO (basal) or 10 µM MG132 for 6 h; IgG IP (MG132_IgG) as control; label-free quantification, three biological replicates).

binding, binds:
B1, B2, B3, B4

Source: publication PMC7694386
